{"source": "PubChem BioAssay AID1224830 (NIAID, 2016)", "assay": "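Host factors that control LPS-induced TNF expression in human macrophages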 (primary screen)", "system": "human THP-1 monocytic leukaemia cells, TNF dual-luciferase reporter clone, PMA-differentiated to macrophage-like cells", "knock-down reagent": "siRNA pool against human genes, 50 nM", "duration": "LPS for 4 h, given about 3 days after siRNA transfection", "challenge": "bacterial LPS (TLR4 ligand), 10 ng/ml", "measured": "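TNF firefly reporter luminescence divided by renilla, normalised to the plate median, then turned into a robust z-score for each replicate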", "direction": "TNF reporter robust z-score: higher = stronger TNF reporter response to LPS", "rule for the call": "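Each well counts as active if its z-score is over 2.8 or under -1.5; controls are left without a call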", "note": "Here is a random part of about 18,000 reagents tested. In the full data, about 2,900 (16%) got an active call. 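Calls are made per well; low scores hint the gene aids the LPS response, high scores that it dampens it.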 A number with no mark means an inactive call. Repeated entries: four replicate wells of each siRNA pool."}
{"target gene":"PLEKHA7 (pleckstrin homology domain containing A7)","TNF reporter robust z-score":1.09}
{"target gene":"PLEKHA7 (pleckstrin homology domain containing A7)","TNF reporter robust z-score":-1.27}
{"target gene":"PLEKHA7 (pleckstrin homology domain containing A7)","TNF reporter robust z-score":"-1.79 (active)"}
{"target gene":"PLEKHA7 (pleckstrin homology domain containing A7)","TNF reporter robust z-score":-0.89}
{"target gene":"GNB2 (G protein subunit beta 2)","TNF reporter robust z-score":0.33}
{"target gene":"GNB2 (G protein subunit beta 2)","TNF reporter robust z-score":0.14}
{"target gene":"GNB2 (G protein subunit beta 2)","TNF reporter robust z-score":0.57}
{"target gene":"GNB2 (G protein subunit beta 2)","TNF reporter robust z-score":-0.88}
{"target gene":"RPS19BP1 (ribosomal protein S19 binding protein 1)","TNF reporter robust z-score":-0.57}
{"target gene":"RPS19BP1 (ribosomal protein S19 binding protein 1)","TNF reporter robust z-score":-0.38}
{"target gene":"RPS19BP1 (ribosomal protein S19 binding protein 1)","TNF reporter robust z-score":-1.17}
{"target gene":"RPS19BP1 (ribosomal protein S19 binding protein 1)","TNF reporter robust z-score":1.66}
{"target gene":"CAB39 (calcium binding protein 39)","TNF reporter robust z-score":0.53}
{"target gene":"CAB39 (calcium binding protein 39)","TNF reporter robust z-score":-0.64}
{"target gene":"CAB39 (calcium binding protein 39)","TNF reporter robust z-score":-0.13}
{"target gene":"CAB39 (calcium binding protein 39)","TNF reporter robust z-score":-0.59}
{"target gene":"MAFF (MAF bZIP transcription factor F)","TNF reporter robust z-score":0.82}
{"target gene":"MAFF (MAF bZIP transcription factor F)","TNF reporter robust z-score":0.49}
{"target gene":"MAFF (MAF bZIP transcription factor F)","TNF reporter robust z-score":-0.62}
{"target gene":"MAFF (MAF bZIP transcription factor F)","TNF reporter robust z-score":-1.01}
{"target gene":"RNF44 (ring finger protein 44)","TNF reporter robust z-score":0.31}
{"target gene":"RNF44 (ring finger protein 44)","TNF reporter robust z-score":-0.23}
{"target gene":"RNF44 (ring finger protein 44)","TNF reporter robust z-score":"-1.8 (active)"}
{"target gene":"RNF44 (ring finger protein 44)","TNF reporter robust z-score":-0.65}
{"target gene":"XYLT1 (xylosyltransferase 1)","TNF reporter robust z-score":"2.99 (active)"}
{"target gene":"XYLT1 (xylosyltransferase 1)","TNF reporter robust z-score":-0.19}
{"target gene":"XYLT1 (xylosyltransferase 1)","TNF reporter robust z-score":-0.45}
{"target gene":"XYLT1 (xylosyltransferase 1)","TNF reporter robust z-score":1.76}
{"target gene":"DCTN4 (dynactin subunit 4)","TNF reporter robust z-score":0.68}
{"target gene":"DCTN4 (dynactin subunit 4)","TNF reporter robust z-score":-0.7}
{"target gene":"DCTN4 (dynactin subunit 4)","TNF reporter robust z-score":-0.85}
{"target gene":"DCTN4 (dynactin subunit 4)","TNF reporter robust z-score":-0.88}
{"target gene":"GFUS (GDP-L-fucose synthase)","TNF reporter robust z-score":0.4}
{"target gene":"GFUS (GDP-L-fucose synthase)","TNF reporter robust z-score":1.19}
{"target gene":"GFUS (GDP-L-fucose synthase)","TNF reporter robust z-score":0.77}
{"target gene":"GFUS (GDP-L-fucose synthase)","TNF reporter robust z-score":1.04}
{"target gene":"GPC5 (glypican 5)","TNF reporter robust z-score":-0.22}
{"target gene":"GPC5 (glypican 5)","TNF reporter robust z-score":-0.56}
{"target gene":"GPC5 (glypican 5)","TNF reporter robust z-score":-0.64}
{"target gene":"GPC5 (glypican 5)","TNF reporter robust z-score":-0.1}
{"target gene":"CCL23 (C-C motif chemokine ligand 23)","TNF reporter robust z-score":-0.04}
{"target gene":"CCL23 (C-C motif chemokine ligand 23)","TNF reporter robust z-score":1.21}
{"target gene":"CCL23 (C-C motif chemokine ligand 23)","TNF reporter robust z-score":0.11}
{"target gene":"CCL23 (C-C motif chemokine ligand 23)","TNF reporter robust z-score":0.26}
{"target gene":"GPR65 (G protein-coupled receptor 65)","TNF reporter robust z-score":0.2}
{"target gene":"GPR65 (G protein-coupled receptor 65)","TNF reporter robust z-score":1.44}
{"target gene":"GPR65 (G protein-coupled receptor 65)","TNF reporter robust z-score":-0.1}
{"target gene":"GPR65 (G protein-coupled receptor 65)","TNF reporter robust z-score":0.5}
{"target gene":"CTAG2 (cancer/testis antigen 2)","TNF reporter robust z-score":-0.75}
{"target gene":"CTAG2 (cancer/testis antigen 2)","TNF reporter robust z-score":-0.74}
{"target gene":"CTAG2 (cancer/testis antigen 2)","TNF reporter robust z-score":-1.08}
{"target gene":"CTAG2 (cancer/testis antigen 2)","TNF reporter robust z-score":1.61}
{"target gene":"NCR2 (natural cytotoxicity triggering receptor 2)","TNF reporter robust z-score":-1.17}
{"target gene":"NCR2 (natural cytotoxicity triggering receptor 2)","TNF reporter robust z-score":-0.24}
{"target gene":"NCR2 (natural cytotoxicity triggering receptor 2)","TNF reporter robust z-score":-0.47}
{"target gene":"NCR2 (natural cytotoxicity triggering receptor 2)","TNF reporter robust z-score":-0.71}
{"target gene":"RIMBP2 (RIMS binding protein 2)","TNF reporter robust z-score":"3.77 (active)"}
{"target gene":"RIMBP2 (RIMS binding protein 2)","TNF reporter robust z-score":1.4}
{"target gene":"RIMBP2 (RIMS binding protein 2)","TNF reporter robust z-score":1.17}
{"target gene":"RIMBP2 (RIMS binding protein 2)","TNF reporter robust z-score":1.8}
